Literature values as cited in US20250332159A1, “REACTIVE OXYGEN SPECIES MODULATION THROUGH BINDING OF LIGANDS AT THE NQ-BINDING SITE OF THE RESPIRATORY COMPLEX III” (University of Health Sciences & Pharmacy in St. Louis, priority 2024, published 2025).

Test system: MCF7 cells
Conditions: read-out: IC50 of positive controls; MCF7, literature references given (Seeger et al., 2004; Fang et al., 2014); cited from earlier work

COc1cccc2c1C(=O)c1c(O)c3c(c(O)c1C2=O)C[C@@](O)(C(=O)CO)C[C@@H]3O[C@H]1C[C@H](N)[C@H](O)[C@H](C)O1 [doxorubicin]
IC50: ~1 µM
